Experimental data published in patent publication US12121510B2 (Cedars-Sinai Medical Center, priority 2016, dated 2024).
At least one structure is not confirmed: it was looked up by name or label, or the drawing left a doubt.

How the values were obtained:
NKPC-961 = test: Sensitization of pancreatic cancer cells to CIS and GEM; assay type: cell-based, mouse
Description: GEM (or PAC) alone are compared to a combination with SIM, or a combination with DZ-SIM.

22Rv1 tumors = test: Prostate tumor xenograft growth; assay type: in vivo, mice; settings: IP twice per week, 37 days; SIM 1.1 mg/kg, DZ-SIM 5.5 mg/kg, DT 8 mg/kg
Experimental: A human prostate tumor xenograft model, 22Rv1 in immune compromised mice, is employed as follows. 1×10^6 freshly harvested cells of a cultured human prostate carcinoma cell line, 22Rv1, are inoculated s.q. in mice. Mice bearing 22Rv1 tumors (10 tumors/group) are randomized into 7 groups on day-1, and administered drugs by IP (intraperitoneally) at the next day (day-2), and subsequently twice per week, using the following drugs and dosages: a control/vehicle (V, i.e. no drug), DZ (5 μM or 3.9 mg/kg, calculated based on the body weight of mice which averaged 20 grams), SIM (5 μM or 1.1 mg/kg), DZ-SIM (5 μM or 5.5 mg/kg), docetaxel (DT, 8 mg/kg), SIM+DT (drug doses as indicated), and DZ-SIM+DT (drug doses as indicated). Administration is continued for a total of 37 days, and tumor volumes are measured at the indicated times (see FIG. 4). […] Thus therapeutically resistant prostate tumors can be rendered sensitive by DZ-SIM but not SIM.

CCC(C)(C)C(=O)O[C@H]1C[C@@H](C)C=C2C=C[C@H](C)[C@H](CC[C@@H]3C[C@@H](O)CC(=O)O3)[C@H]21 [SIM, Simvastatin]
Sensitization to CIS and GEM (NKPC-961): about equally sensitize
Growth of 22Rv1 tumors in vivo (tumor volume) (22Rv1 tumors): ineffective
